Results: US8741955B2, “D-serine transporter inhibitors as pharmaceutical compositions for the treatment of central nervous system disorders” (Allergan, Inc., priority 2011, dated 2014)
pIC50: −log10 of the molar value. Some of these results come from one statement about several compounds together.

Tested on: human ASCT1 or ASCT2
Test: transport in HEK cells expressing ASCT1 or ASCT2 (one or both assays)
Format: cell-based

| Structure (SMILES) | pIC50 |
| --- | --- |
| N[C@H](C(=O)O)c1ccc(F)cc1 [L-4-fluorophenylglycine] | > 2.70 |
| O=C(O)[C@@H]1C[C@@H](Cc2ccc(Cl)cc2Cl)CN1 [R-gamma-2,4-dichlorobenzyl-L-proline] | > 2.70 |
